Reference: patent publication US20060063208A1
No constants are given. Whether binding was seen depends on the method and setting. Some entries that bind do so weakly or less than the wild type. Sequences can lack the tags named with a protein. Values belong to the binder of their own block, whether it stands above or below them.

Assays:
[1] = molecular target: T1, RGMa.Fc fusion protein (extracellular domain of murine RGMa fused to the Fc portion of human IgG) (mouse; human) (UniProt Q6PCX7); assay: competition with 125I-BMP-2 for RGMa.Fc, protein A plate capture
T1 sequence (looked up): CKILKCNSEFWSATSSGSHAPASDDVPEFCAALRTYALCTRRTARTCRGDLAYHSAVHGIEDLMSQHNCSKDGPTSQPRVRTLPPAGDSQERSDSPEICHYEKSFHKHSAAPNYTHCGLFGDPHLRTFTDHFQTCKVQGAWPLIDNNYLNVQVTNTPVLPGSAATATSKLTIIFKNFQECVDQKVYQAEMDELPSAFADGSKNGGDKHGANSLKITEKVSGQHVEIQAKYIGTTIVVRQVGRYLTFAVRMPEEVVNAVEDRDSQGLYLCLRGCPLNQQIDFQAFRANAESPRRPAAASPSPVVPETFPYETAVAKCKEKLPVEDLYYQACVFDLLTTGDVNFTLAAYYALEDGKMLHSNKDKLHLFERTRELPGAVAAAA

BMP-4 (human) [2] = molecular target: T2, BMP-4 (human) (UniProt P12644); assay: legend of FIGS. 34A and 34B
T2 sequence (iodinated with 125I where used as tracer, looked up): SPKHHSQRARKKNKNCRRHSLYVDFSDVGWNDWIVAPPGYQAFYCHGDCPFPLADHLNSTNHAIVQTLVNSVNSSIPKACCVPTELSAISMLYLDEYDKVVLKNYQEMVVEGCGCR

BMP-2 (human) [3] = molecular target: T3, BMP-2 (human) (UniProt P12643); assay: legend of FIGS. 34A and 34B
T3 sequence (iodinated with 125I where used as tracer, looked up): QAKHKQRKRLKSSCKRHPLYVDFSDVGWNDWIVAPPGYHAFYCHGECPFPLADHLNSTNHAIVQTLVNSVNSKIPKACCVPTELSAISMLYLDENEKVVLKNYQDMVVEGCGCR

BMP-2 (human) [4] = molecular target: T3, BMP-2 (human); assay: RGMa.Fc with 125I-BMP-2 overnight in solution, protein A coated plates
BMP-2 (human) [5] = molecular target: T3, BMP-2 (human); assay: DSS crosslinking, protein A pull-down, non-reducing SDS-PAGE, α-RGMa Western blot
BMP-4 (human) [6] = molecular target: T2, BMP-4 (human); assay: DSS crosslinking in solution, protein A beads, autoradiography
BMP-2 (human) [7] = molecular target: T3, BMP-2 (human); assay: as above
BMP-2 (human) [8] = molecular target: T3, BMP-2 (human); assay: 10 ng RGMa.Fc with 125I-BMP-2 in solution, protein A coated plates
BMP-4 (human) [9] = molecular target: T2, BMP-4 (human); assay: RGMa.Fc with 125I-BMP-4 in solution, protein A coated plates

binding [1]: binds
B1: BMP-4 (ligand, human, UniProt P12644 293-408, looked up)
chain: T2 sequence (iodinated with 125I where used as tracer, looked up)
modifications: iodinated with 125I where used as tracer

binding (BMP-4 (human) [2]): binds
binding (BMP-2 (human) [3]): binds
binding (BMP-2 (human) [4]): binds
binding (BMP-2 (human) [5]): binds
binding (BMP-4 (human) [6]): binds
binding (BMP-2 (human) [7]): binds
binding (BMP-2 (human) [8]): binds
binding (BMP-4 (human) [9]): binds
B2: RGMa.Fc fusion protein (extracellular domain of murine RGMa fused to the Fc portion of human IgG) (Fc fusion, mouse, UniProt Q6PCX7 48-427, looked up, not shown: a dimerising Fc or GST)
chain: T1 sequence (looked up)
